These are yes or no findings as the source states them, for the method shown. Binding seen in cells or lysates may run through a third protein. Some binding calls cover weakened binding; strength is not graded here.
Biological target: T1, ovarian tumor family deubiquitinase 4 (OTUD4) (mouse (endogenous in IECs of C57BL/6 mice)) (UniProt B2RRE7)
T1 sequence: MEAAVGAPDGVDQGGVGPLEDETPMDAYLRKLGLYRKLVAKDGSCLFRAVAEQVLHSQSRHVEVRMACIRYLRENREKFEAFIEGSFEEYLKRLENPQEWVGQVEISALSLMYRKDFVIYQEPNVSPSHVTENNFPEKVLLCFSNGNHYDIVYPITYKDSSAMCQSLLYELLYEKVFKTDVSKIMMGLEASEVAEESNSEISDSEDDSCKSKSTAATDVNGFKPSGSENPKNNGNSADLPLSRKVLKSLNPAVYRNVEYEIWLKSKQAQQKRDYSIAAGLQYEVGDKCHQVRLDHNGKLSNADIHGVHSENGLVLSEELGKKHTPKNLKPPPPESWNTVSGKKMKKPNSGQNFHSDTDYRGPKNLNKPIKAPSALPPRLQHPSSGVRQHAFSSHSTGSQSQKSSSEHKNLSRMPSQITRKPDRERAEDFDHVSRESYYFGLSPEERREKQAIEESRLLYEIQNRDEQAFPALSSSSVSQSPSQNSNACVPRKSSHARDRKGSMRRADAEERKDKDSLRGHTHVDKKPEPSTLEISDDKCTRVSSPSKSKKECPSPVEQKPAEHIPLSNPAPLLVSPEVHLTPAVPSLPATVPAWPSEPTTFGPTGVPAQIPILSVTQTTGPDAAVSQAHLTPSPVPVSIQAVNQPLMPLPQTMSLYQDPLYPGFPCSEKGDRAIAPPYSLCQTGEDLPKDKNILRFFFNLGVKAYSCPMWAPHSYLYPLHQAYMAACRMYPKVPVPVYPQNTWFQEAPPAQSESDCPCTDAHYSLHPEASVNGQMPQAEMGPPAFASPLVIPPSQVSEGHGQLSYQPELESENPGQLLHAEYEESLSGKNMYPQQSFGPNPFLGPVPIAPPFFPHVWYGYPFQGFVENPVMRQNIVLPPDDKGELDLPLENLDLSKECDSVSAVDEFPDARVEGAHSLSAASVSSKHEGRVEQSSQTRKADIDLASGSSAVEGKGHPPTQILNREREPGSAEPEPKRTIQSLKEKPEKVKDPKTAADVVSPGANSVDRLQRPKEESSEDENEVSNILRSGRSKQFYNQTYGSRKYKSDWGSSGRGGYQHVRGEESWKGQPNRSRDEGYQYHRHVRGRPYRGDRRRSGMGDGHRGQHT
Test: co-IP; whole-cell extract (NP-40 lysis buffer: 150 mM NaCl, 1 mM EDTA, 1% nonidet P-40) of IECs from wild-type C57BL/6 mice incubated with control IgG or anti-OTUD4 and protein G agarose overnight; washed three times; immunoblot

Sequences of proteins named here, by UniProt entry; tags and fusion partners are left off.
UniProt P22366: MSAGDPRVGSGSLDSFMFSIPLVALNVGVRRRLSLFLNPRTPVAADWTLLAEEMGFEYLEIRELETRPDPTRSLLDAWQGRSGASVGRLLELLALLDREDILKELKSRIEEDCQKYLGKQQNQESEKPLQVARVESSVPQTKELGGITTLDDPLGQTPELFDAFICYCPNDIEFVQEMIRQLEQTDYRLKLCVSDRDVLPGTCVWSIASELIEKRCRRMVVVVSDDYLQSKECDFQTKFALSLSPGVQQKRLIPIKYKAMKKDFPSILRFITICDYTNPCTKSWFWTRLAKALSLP

binding: binds
Substance: MyD88 (from UniProt P22366 1-296)

Reference: PMC10123543
